Laboratory results as given in PMC4819448, “Co-operative and Hierarchical Binding of c-FLIP and Caspase-8: A Unified Model Defines How c-FLIP Isoforms Differentially Control Cell Fate” (Molecular Cell, 2016).
These are yes or no findings as the source states them, for the method shown. Binding seen in cells or lysates may run through a third protein. Some binding calls cover weakened binding; strength is not graded here.

Amino acid sequences for entries named in this document (tags omitted). Residues count along the entry.
UniProt P48023, residues 130-281: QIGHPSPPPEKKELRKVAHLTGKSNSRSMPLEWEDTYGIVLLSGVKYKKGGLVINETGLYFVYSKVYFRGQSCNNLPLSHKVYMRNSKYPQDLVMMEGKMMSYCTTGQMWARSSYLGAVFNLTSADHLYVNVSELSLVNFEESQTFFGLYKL
UniProt Q13158: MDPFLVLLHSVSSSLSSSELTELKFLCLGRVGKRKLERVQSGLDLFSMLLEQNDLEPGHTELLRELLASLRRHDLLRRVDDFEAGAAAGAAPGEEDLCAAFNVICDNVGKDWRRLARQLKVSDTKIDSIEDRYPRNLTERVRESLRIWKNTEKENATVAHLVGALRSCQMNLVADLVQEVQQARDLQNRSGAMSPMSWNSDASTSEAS

Molecular target: Fc-CD95L (UniProt P48023)
Experiment: pull-down; native CD95 DISC: control (vector) or c-FLIPS expressing HaCaT cells, 250 U/ml Fc-CD95L 30 min 37 C, lysis in 30 mM Tris-HCl pH 7.5, 150 mM NaCl, 10% glycerol, 1% Triton X-100; ligand affinity purification, western blotting; only the target purified

## endogenous FADD (from UniProt Q13158 1-208)
  binding: binds

B1: endogenous caspase-8 (natural protein, human (endogenous in BJAB and HaCaT), UniProt Q14790 1-479, looked up)
chain: MDFSRNLYDIGEQLDSEDLASLKFLSLDYIPQRKQEPIKDALMLFQRLQEKRMLEESNLSFLKELLFRINRLDLLITYLNTRKEEMERELQTPGRAQISAYRVMLYQISEEVSRSELRSFKFLLQEEISKCKLDDDMNLLDIFIEMEKRVILGEGKLDILKRVCAQINKSLLKIINDYEEFSKERSSSLEGSPDEFSNGEELCGVMTISDSPREQDSESQTLDKVYQMKSKPRGYCLIINNHNFAKAREKVPKLHSIRDRNGTHLDAGALTTTFEELHFEIKPHDDCTVEQIYEILKIYQLMDHSNMDCFICCILSHGDKGIIYGTDGQEAPIYELTSQFTGLKCPSLAGKPKVFFIQACQGDNYQKGIPVETDSEEQPYLEMDLSSPQTRYIPDEADFLLGMATVNNCVSYRNPAEGTWYIQSLCQSLRERCPRGDDILTILTEVNYEVSNKDDKKNMGKQMPQPTFTLRKKLVFPSD
notes: caspase-8, endogenous; procaspase-8 and p43/41 cleavage fragments detected; also called procaspase-8; p43/41 cleavage fragments; source: endogenous, BJAB and HaCaT lysates
  binding: binds
